Assay results: paper doi:10.1101/2025.10.24.684417

By UniProt entry, the sequences of proteins in these tests, tags left out.
UniProt Q13761: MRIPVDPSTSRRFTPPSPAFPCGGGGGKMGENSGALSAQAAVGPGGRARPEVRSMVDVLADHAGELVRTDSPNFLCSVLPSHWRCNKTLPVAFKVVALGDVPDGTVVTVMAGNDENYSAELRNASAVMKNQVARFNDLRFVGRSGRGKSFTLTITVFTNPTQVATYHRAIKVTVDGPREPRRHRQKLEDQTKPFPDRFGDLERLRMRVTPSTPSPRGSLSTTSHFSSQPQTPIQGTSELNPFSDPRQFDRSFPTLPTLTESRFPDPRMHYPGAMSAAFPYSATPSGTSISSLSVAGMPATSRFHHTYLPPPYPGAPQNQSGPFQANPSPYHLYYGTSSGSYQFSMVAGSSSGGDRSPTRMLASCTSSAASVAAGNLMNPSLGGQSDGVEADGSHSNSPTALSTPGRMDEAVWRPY
UniProt P51532: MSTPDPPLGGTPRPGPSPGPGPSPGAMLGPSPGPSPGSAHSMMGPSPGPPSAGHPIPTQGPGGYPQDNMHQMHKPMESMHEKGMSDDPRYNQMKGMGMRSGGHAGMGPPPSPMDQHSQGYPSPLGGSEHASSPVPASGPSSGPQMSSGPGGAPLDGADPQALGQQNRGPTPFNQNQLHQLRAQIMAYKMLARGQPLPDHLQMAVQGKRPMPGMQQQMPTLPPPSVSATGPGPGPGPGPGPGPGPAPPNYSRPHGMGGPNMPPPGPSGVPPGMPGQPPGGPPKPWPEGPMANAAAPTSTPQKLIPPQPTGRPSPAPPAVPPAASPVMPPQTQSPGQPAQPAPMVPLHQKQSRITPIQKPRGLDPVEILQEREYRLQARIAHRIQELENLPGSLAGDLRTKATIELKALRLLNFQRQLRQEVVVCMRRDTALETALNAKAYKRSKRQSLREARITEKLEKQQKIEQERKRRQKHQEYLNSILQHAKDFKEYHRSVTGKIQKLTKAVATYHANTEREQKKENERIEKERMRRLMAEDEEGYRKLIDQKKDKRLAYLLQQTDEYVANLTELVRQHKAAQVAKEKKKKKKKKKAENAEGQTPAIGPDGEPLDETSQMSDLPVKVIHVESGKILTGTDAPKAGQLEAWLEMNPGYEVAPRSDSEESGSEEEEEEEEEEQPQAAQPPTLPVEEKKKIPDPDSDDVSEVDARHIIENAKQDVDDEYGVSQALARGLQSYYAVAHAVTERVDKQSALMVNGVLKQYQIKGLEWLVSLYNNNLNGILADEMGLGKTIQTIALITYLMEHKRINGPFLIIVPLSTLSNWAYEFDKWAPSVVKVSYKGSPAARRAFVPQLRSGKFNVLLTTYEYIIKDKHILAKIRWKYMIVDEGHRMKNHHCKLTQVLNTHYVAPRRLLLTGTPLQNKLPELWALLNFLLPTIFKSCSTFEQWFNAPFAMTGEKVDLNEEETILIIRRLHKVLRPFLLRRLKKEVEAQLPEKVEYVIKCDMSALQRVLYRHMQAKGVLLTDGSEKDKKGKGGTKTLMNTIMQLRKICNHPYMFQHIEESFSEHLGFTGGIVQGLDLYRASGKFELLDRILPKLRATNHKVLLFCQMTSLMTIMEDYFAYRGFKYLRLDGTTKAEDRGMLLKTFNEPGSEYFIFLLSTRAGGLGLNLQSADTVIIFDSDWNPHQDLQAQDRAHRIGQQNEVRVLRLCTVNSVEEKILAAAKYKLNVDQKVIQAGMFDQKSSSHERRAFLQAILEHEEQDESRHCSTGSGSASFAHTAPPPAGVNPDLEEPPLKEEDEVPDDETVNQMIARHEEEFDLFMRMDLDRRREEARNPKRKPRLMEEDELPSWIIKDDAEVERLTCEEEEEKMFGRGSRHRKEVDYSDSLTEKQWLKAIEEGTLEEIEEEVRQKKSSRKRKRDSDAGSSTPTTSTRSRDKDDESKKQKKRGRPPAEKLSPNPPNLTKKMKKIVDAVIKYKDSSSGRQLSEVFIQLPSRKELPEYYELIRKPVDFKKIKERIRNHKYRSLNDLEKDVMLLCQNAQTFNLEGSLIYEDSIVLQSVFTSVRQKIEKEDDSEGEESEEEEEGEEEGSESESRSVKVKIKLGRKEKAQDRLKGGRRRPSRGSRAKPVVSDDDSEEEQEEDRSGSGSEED

Molecular target: RUNX3-TurboID, expressed in HEK293T cells (UniProt Q13761)
Test: proximity labelling

For BRG1 (from UniProt P51532 1-1647), the binding was “binds”.

Results are given in words; binding and its absence hold for the method and conditions named. Binding seen in cells or lysates may run through a third protein. A yes stands for co-enrichment or nearness to the bait. Other partners may have been found.
